Results are given in words; binding and its absence hold for the method and conditions named. Binding seen in cells or lysates may run through a third protein. Here binding means that the protein was enriched with, or labelled near, the bait; the list need not be complete.
Columns and labels:
[1] = biological target: Polypyrimidine Tract Binding Protein 1, His-tagged (UniProt P26599); assay: affinity purification with mass spectrometry; 48 ug His-tagged PTBP in a 200 ul splicing reaction (2.2 mM MgCl2, 0.4 mM ATP, 20 mM creatine phosphate) with WERI retinoblastoma nuclear extract, 30 C 90 min; HisPur Ni-NTA magnetic resin overnight at 4 C; washes with 150 mM NaCl, 30 mM imidazole; eluted with 300 mM imidazole; proteins of the Buffer DG and WERI only controls removed from the lists; the extract includes RNA transcripts, so a protein may be bound directly or through RNA; only the target purified
[2] = biological target: Polypyrimidine Tract Binding Protein 2, His-tagged (UniProt Q9UKA9); assay: as above

Sequences of proteins named here, by UniProt entry; tags and fusion partners are left off.
UniProt P26599: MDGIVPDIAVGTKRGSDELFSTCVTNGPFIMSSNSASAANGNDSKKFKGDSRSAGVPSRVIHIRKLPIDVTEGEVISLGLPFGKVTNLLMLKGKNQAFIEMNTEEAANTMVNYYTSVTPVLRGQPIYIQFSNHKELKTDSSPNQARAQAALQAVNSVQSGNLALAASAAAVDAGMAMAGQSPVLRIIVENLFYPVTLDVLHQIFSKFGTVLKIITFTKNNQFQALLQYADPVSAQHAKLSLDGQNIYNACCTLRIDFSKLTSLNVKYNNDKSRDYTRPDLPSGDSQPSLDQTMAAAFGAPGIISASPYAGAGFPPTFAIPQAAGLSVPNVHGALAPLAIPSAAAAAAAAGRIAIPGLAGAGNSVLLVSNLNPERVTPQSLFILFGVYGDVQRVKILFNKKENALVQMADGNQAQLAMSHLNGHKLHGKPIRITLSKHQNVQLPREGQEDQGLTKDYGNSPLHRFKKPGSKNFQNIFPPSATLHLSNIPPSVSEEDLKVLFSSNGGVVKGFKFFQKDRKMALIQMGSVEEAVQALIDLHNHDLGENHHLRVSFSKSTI
UniProt Q9UKA9: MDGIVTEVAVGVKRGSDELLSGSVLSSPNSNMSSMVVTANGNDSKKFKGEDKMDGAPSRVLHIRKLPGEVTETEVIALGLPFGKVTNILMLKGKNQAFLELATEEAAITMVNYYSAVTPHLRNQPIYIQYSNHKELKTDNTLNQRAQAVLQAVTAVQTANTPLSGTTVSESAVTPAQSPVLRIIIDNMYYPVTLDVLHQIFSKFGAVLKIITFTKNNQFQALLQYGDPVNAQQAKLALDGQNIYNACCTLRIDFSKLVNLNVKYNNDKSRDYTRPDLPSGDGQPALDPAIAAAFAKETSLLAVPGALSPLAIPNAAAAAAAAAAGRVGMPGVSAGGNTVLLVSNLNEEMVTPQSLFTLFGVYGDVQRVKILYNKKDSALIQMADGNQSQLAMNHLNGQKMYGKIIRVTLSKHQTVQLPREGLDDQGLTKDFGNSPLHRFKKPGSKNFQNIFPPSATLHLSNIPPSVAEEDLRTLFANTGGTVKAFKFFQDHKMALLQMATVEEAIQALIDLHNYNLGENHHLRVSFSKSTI

Binder	binding [1]	binding [2]
GDI2 (protein, UniProt P50395 1-445) MNEEYDVIVLGTGLTECILSGIMSVNGKKVLHMDRNPYYGGESASITPLEDLYKRFKIPGSPPESMGRGRDWNVDLIPKFLMANGQLVKMLLYTEVTRYLDFKVTEGSFVYKGGKIYKVPSTEAEALASSLMGLFEKRRFRKFLVYVANFDEKDPRTFEGIDPKKTTMRDVYKKFDLGQDVIDFTGHALALYRTDDYLDQPCYETINRIKLYSESLARYGKSPYLYPLYGLGELPQGFARLSAIYGGTYMLNKPIEEIIVQNGKVIGVKSEGEIARCKQLICDPSYVKDRVEKVGQVIRVICILSHPIKNTNDANSCQIIIPQNQVNRKSDIYVCMISFAHNVAAQGKYIAIVSTTVETKEPEKEIRPALELLEPIEQKFVSISDLLVPKDLGTESQIFISRTYDATTHFETTCDDIKNIYKRMTGSEFDFEEMKRKKNDIYGED	binds	–
serine arginine rich splicing factor SRSF11 (protein, UniProt Q05519 1-484) MSNTTVVPSTAGPGPSGGPGGGGGGGGGGGGTEVIQVTNVSPSASSEQMRTLFGFLGKIDELRLFPPDDSPLPVSSRVCFVKFHDPDSAVVAQHLTNTVFVDRALIVVPYAEGVIPDEAKALSLLAPANAVAGLLPGGGLLPTPNPLTQIGAVPLAALGAPTLDPALAALGLPGANLNSQSLAADQLLKLMSTVDPKLNHVAAGLVSPSLKSDTSSKEIEEAMKRVREAQSLISAAIEPDKKEEKRRHSRSRSRSRRRRTPSSSRHRRSRSRSRRRSHSKSRSRRRSKSPRRRRSHSRERGRRSRSTSKTRDKKKEDKEKKRSKTPPKSYSTARRSRSASRERRRRRSRSGTRSPKKPRSPKRKLSRSPSPRRHKKEKKKDKDKERSRDERERSTSKKKKSKDKEKDRERKSESDKDVKQVTRDYDEEEQGYDSEKEKKEEKKPIETGSPKTKECSVEKGTGDSLRESKVNGDDHHEEDMDMSD	–	binds
serine arginine rich splicing factor SRSF8 (protein, UniProt Q9BRL6 1-282) MSCGRPPPDVDGMITLKVDNLTYRTSPDSLRRVFEKYGRVGDVYIPREPHTKAPRGFAFVRFHDRRDAQDAEAAMDGAELDGRELRVQVARYGRRDLPRSRQGEPRGRSRGGGYGRRSRSYGRRSRSPRRRHRSRSRGPSCSRSRSRSRYRGSRYSRSPYSRSPYSRSRYSRSPYSRSRYRESRYGGSHYSSSGYSNSRYSRYHSSRSHSKSGSSTSSRSASTSKSSSARRSKSSSVSRSRSRSRSSSMTRSPPRVSKRKSKSRSRSKRPPKSPEEEGQMSS	–	binds
U4/U6. U5 tri snRNP associated protein SNRNP27 (protein, UniProt Q8WVK2 1-155) MGRSRSRSPRRERRRSRSTSRERERRRRERSRSRERDRRRSRSRSPHRRRSRSPRRHRSTSPSPSRLKERRDEEKKETKETKSKERQITEEDLEGKTEEEIEMMKLMGFASFDSTKGKKVDGSVNAYAINVSQKRKYRQYMNRKGGFNRPLDFIA	–	binds
U4/U6. U5 tri snRNP associated protein USP39 (protein, UniProt Q53GS9 1-565) MSGRSKRESRGSTRGKRESESRGSSGRVKRERDREREPEAASSRGSPVRVKREFEPASAREAPASVVPFVRVKREREVDEDSEPEREVRAKNGRVDSEDRRSRHCPYLDTINRSVLDFDFEKLCSISLSHINAYACLVCGKYFQGRGLKSHAYIHSVQFSHHVFLNLHTLKFYCLPDNYEIIDSSLEDITYVLKPTFTKQQIANLDKQAKLSRAYDGTTYLPGIVGLNNIKANDYANAVLQALSNVPPLRNYFLEEDNYKNIKRPPGDIMFLLVQRFGELMRKLWNPRNFKAHVSPHEMLQAVVLCSKKTFQITKQGDGVDFLSWFLNALHSALGGTKKKKKTIVTDVFQGSMRIFTKKLPHPDLPAEEKEQLLHNDEYQETMVESTFMYLTLDLPTAPLYKDEKEQLIIPQVPLFNILAKFNGITEKEYKTYKENFLKRFQLTKLPPYLIFCIKRFTKNNFFVEKNPTIVNFPITNVDLREYLSEEVQAVHKNTTYDLIANIVHDGKPSEGSYRIHVLHHGTGKWYELQDLQVTDILPQMITLSEAYIQIWKRRDNDETNQQGA	–	binds
Matrin 3 (protein, UniProt P43243 1-847) MSKSFQQSSLSRDSQGHGRDLSAAGIGLLAAATQSLSMPASLGRMNQGTARLASLMNLGMSSSLNQQGAHSALSSASTSSHNLQSIFNIGSRGPLPLSSQHRGDADQASNILASFGLSARDLDELSRYPEDKITPENLPQILLQLKRRRTEEGPTLSYGRDGRSATREPPYRVPRDDWEEKRHFRRDSFDDRGPSLNPVLDYDHGSRSQESGYYDRMDYEDDRLRDGERCRDDSFFGETSHNYHKFDSEYERMGRGPGPLQERSLFEKKRGAPPSSNIEDFHGLLPKGYPHLCSICDLPVHSNKEWSQHINGASHSRRCQLLLEIYPEWNPDNDTGHTMGDPFMLQQSTNPAPGILGPPPPSFHLGGPAVGPRGNLGAGNGNLQGPRHMQKGRVETSRVVHIMDFQRGKNLRYQLLQLVEPFGVISNHLILNKINEAFIEMATTEDAQAAVDYYTTTPALVFGKPVRVHLSQKYKRIKKPEGKPDQKFDQKQELGRVIHLSNLPHSGYSDSAVLKLAEPYGKIKNYILMRMKSQAFIEMETREDAMAMVDHCLKKALWFQGRCVKVDLSEKYKKLVLRIPNRGIDLLKKDKSRKRSYSPDGKESPSDKKSKTDGSQKTESSTEGKEQEEKSGEDGEKDTKDDQTEQEPNMLLESEDELLVDEEEAAALLESGSSVGDETDLANLGDVASDGKKEPSDKAVKKDGSASAAAKKKLKKVDKIEELDQENEAALENGIKNEENTEPGAESSENADDPNKDTSENADGQSDENKDDYTIPDEYRIGPYQPNVPVGIDYVIPKTGFYCKLCSLFYTNEEVAKNTHCSSLPHYQKLKKFLNKLAEERRQKKET	–	binds
TBPL1, a TATA box-binding protein like −1 (protein, UniProt P62380 1-186) MDADSDVALDILITNVVCVFRTRCHLNLRKIALEGANVIYKRDVGKVLMKLRKPRITATIWSSGKIICTGATSEEEAKFGARRLARSLQKLGFQVIFTDFKVVNVLAVCNMPFEIRLPEFTKNNRPHASYEPELHPAVCYRIKSLRATLQIFSTGSITVTGPNVKAVATAVEQIYPFVFESRKEIL	–	binds
peptidyl-prolyl cis-transisomerase (PPIL3) (protein, UniProt Q9H2H8 1-161) MSVTLHTDVGDIKIEVFCERTPKTCENFLALCASNYYNGCIFHRNIKGFMVQTGDPTGTGRGGNSIWGKKFEDEYSEYLKHNVRGVVSMANNGPNTNGSQFFITYGKQPHLDMKYTVFGKVIDGLETLDELEKLPVNEKTYRPLNDVHIKDITIHANPFAQ	–	binds
serine threonine protein kinase like protein PXK (protein, UniProt Q7Z7A4 1-578) MAFMEKPPAGKVLLDDTVPLTAAIEASQSLQSHTEYIIRVQRGISVENSWQIVRRYSDFDLLNNSLQIAGLSLPLPPKKLIGNMDREFIAERQKGLQNYLNVITTNHILSNCELVKKFLDPNNYSANYTEIALQQVSMFFRSEPKWEVVEPLKDIGWRIRKKYFLMKIKNQPKERLVLSWADLGPDKYLSDKDFQCLIKLLPSCLHPYIYRVTFATANESSALLIRMFNEKGTLKDLIYKAKPKDPFLKKYCNPKKIQGLELQQIKTYGRQILEVLKFLHDKGFPYGHLHASNVMLDGDTCRLLDLENSLLGLPSFYRSYFSQFRKINTLESVDVHCFGHLLYEMTYGRPPDSVPVDSFPPAPSMAVVAVLESTLSCEACKNGMPTISRLLQMPLFSDVLLTTSEKPQFKIPTKLKEALRIAKECIEKRLIEEQKQIHQHRRLTRAQSHHGSEEERKKRKILARKKSKRSALENSEEHSAKYSNSNNSAGSGASSPLTSPSSPTPPSTSGISALPPPPPPPPPPAAPLPPASTEAPAQLSSQAVNGMSRGALLSSIQNFQKGTLRKAKTCDHSAPKIG	–	binds
